Consider 2 compounds from PMC11684019, “Unveiling the Antimycobacterial Potential of Novel 4-Alkoxyquinolines: Insights into Selectivity, Mechanism of Action, and In Vivo Exposure” (Journal of Medicinal Chemistry, 2024).

Like-named read-outs stand apart in the source and are kept apart here. Marks after values point to notes of the source that are not given here.

Series [1] has as its system HepG2 cells. The conditions noted are these: SI = CC50/MIC H37Rv, MTT method. (In general: Formazan colour is commonly taken as a measure of viable cells.)
Series [2] deals with HepG2 cells. To be noted: SI = CC50/MIC H37Rv, Neutral Red method.

For the compound `Cc1cc(OCCCNc2ccc(Cl)cc2)c2cc(Br)ccc2n1` [8r, N-(3-((6-bromo-2-methylquinolin-4-yl)oxy)propyl)-4-chloroaniline], in the series with HepG2 cells [1], the “SI HepG2” value is given as >200 ^b; > 200 ^c. As to “N-(3-((6-bromo-2-ethylquinolin-4-yl)oxy)propyl)-4-ethylaniline [8w]”, the “SI HepG2” value is recorded as over 200 in the series on HepG2 cells [1] and 83 in the series with HepG2 cells [2].
